Assay results: PMC12592420, “A mismatch in enzyme-redox partnerships underlies divergent cytochrome P450 activities between human hepatocytes and microsomes” (Communications Biology, 2025)

Tests used:
physchem = conditions: pH 7.4
in vitro = conditions: human, Caco-2

SMILES: COC(=O)C1=C(C)NC(C)=C(C(=O)OC)C1c1ccccc1[N+](=O)[O-] [Nifedipine]
- logD (physchem): 3.15
- Papp (in vitro): 78.3 ×10⁻⁶ cm/s
